Assay results from patent publication CN111196850A.
These are yes or no findings as the source states them, for the method shown. Some binding calls cover weakened binding; strength is not graded here.

Biological target: rhTSLP-mFc融合蛋白 (human)
Assay: ELISA: rhTSLP-mFc coated, goat anti-human IgG-HRP detection

binding | Binder
binds | 人源化单克隆抗体1K1/1H2 (antibody, human IgG1, kappa, V domains shown) VH: EVKLVESGGGLVQPGGSLKLSCAASGFTFSSFGMNWVRQAPGKGLEWVAYISSGSSIIYYADSVKGRFTISRDNPKNSLYLQMNSLRDEDTAVYYCAREPYGYDVYYFDYWGQGTTVTVSS VL: DIVMTQSPASLAVSLGQRATITCKASQSIDYDGDSYMNWYQQKPGQPPKLLIYAASNLDSGVPARFSGSGSGTDFTLTIHPVEPEDFATYYCQQSNEDPYTFGGGTKVEIKR
binds | 人源化单克隆抗体1K3/1H2 (antibody, human IgG1, kappa, V domains shown) VH: EVKLVESGGGLVQPGGSLKLSCAASGFTFSSFGMNWVRQAPGKGLEWVAYISSGSSIIYYADSVKGRFTISRDNPKNSLYLQMNSLRDEDTAVYYCAREPYGYDVYYFDYWGQGTTVTVSS VL: DIVMTQSPASLAVSPGQRATISCKASQSIDYDGDSYMNWYQQKPGQPPKLLIYAASNLDTGIPARFSGSGSGTDFTLTISSVEEEDTATYYCQQSNEDPYTFGGGTKVEIKR
binds | 人源化单克隆抗体1K2/1H2 (antibody, human IgG1, kappa, V domains shown) VH: EVKLVESGGGLVQPGGSLKLSCAASGFTFSSFGMNWVRQAPGKGLEWVAYISSGSSIIYYADSVKGRFTISRDNPKNSLYLQMNSLRDEDTAVYYCAREPYGYDVYYFDYWGQGTTVTVSS VL: DIVLTQSPASLAVSLGQRATITCKASQSIDYDGDSYLNWYQQKPGQPPKLLIYAASNKDSGVPARFSGSGSGTDFTLTINPVEAEDFAVYYCQQSNEDPYTFGGGTKVEIKR
